Results reported in the supplement of paper PMC11006884.
What follows is the remainder of the data, with few or none of the targets with a hit. This is a noisy data set. This is a selection; strong and weak results do not stand in their true shares.

The chains behind the UniProt entries cited, without tags or fusion partners. Where a name states a change or a piece, a line headed by the entry shows the natural chain unless it says otherwise.
UniProt Q9P2J5: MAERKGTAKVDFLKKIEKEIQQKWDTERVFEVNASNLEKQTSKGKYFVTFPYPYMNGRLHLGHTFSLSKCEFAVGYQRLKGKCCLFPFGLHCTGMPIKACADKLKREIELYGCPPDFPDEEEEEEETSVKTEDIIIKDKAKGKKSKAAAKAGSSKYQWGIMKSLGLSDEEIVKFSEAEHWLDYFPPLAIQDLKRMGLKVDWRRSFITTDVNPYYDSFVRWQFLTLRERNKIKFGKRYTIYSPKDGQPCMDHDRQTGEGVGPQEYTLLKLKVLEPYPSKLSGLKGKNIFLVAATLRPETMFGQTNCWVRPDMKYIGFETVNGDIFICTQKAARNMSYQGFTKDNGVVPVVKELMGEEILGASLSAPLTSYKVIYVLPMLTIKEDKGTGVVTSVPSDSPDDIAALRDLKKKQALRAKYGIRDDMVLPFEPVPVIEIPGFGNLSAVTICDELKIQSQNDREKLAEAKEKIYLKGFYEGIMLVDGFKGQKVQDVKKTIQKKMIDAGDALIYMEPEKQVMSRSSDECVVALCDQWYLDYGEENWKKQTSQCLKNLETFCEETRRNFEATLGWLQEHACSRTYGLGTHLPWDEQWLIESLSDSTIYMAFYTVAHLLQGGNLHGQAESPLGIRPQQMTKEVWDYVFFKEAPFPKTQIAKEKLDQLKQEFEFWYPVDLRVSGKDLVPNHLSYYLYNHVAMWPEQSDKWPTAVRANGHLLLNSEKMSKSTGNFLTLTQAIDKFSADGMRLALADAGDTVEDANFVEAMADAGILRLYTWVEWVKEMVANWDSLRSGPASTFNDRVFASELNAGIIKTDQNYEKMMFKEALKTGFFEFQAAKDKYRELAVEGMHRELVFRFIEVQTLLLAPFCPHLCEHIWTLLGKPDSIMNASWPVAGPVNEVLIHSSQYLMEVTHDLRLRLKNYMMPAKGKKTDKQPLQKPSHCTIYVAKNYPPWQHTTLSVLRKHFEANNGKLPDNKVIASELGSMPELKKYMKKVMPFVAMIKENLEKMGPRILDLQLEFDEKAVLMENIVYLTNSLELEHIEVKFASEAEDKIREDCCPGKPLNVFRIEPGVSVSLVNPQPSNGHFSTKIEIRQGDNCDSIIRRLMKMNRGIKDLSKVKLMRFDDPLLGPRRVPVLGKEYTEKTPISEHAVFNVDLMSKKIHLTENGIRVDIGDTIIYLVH
UniProt Q9UGV2: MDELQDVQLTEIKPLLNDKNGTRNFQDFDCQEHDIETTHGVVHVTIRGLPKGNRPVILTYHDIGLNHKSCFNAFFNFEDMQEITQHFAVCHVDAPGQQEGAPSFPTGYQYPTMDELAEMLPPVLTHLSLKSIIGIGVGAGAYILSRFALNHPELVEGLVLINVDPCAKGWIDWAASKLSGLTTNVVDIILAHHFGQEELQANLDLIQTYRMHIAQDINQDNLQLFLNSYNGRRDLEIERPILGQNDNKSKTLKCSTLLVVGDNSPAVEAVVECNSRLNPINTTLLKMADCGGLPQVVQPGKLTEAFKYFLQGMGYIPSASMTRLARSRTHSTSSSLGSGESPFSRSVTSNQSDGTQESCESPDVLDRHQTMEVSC
UniProt Q9P0P0: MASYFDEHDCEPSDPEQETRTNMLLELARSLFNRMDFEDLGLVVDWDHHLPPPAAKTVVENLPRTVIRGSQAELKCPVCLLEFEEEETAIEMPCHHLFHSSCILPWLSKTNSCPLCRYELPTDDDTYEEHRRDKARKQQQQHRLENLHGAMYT
UniProt Q9UGP8: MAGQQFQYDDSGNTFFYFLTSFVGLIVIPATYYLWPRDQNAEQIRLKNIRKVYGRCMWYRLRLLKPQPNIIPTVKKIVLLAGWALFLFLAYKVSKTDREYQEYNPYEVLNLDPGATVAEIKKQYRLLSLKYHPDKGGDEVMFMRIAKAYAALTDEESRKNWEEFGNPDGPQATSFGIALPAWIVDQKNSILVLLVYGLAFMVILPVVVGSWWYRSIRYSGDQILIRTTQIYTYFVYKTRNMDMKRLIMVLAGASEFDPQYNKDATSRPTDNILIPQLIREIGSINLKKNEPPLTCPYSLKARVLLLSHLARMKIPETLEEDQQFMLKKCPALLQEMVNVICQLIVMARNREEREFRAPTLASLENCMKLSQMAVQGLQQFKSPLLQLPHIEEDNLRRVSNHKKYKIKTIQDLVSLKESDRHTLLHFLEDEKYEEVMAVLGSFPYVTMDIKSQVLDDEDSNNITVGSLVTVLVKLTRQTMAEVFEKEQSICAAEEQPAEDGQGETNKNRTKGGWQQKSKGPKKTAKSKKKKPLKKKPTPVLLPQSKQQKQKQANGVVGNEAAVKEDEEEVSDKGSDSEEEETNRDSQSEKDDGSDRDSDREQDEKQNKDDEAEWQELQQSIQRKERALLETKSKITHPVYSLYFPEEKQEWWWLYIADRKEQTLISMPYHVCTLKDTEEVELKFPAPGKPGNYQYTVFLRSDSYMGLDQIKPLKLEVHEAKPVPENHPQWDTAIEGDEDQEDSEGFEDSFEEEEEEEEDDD
UniProt Q9NVR2, whole entry: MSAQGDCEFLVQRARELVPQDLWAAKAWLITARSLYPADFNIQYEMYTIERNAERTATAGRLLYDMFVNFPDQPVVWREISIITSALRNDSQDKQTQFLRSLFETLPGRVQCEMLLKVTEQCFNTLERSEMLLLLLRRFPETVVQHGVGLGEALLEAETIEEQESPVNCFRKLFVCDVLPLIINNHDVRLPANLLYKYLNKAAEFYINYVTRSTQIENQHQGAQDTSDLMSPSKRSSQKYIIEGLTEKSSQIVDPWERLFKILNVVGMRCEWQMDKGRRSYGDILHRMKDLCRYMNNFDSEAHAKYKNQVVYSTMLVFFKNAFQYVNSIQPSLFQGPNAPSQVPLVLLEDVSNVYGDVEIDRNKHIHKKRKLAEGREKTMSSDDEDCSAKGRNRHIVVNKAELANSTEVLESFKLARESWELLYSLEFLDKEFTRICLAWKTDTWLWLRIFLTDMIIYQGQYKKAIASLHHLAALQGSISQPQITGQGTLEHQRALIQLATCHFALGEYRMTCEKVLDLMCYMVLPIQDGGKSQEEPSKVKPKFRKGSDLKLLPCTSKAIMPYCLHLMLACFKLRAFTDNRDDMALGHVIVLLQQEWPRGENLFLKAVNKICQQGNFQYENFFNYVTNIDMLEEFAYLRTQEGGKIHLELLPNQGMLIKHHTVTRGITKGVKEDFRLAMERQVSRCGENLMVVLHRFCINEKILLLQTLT
UniProt Q9NVA2: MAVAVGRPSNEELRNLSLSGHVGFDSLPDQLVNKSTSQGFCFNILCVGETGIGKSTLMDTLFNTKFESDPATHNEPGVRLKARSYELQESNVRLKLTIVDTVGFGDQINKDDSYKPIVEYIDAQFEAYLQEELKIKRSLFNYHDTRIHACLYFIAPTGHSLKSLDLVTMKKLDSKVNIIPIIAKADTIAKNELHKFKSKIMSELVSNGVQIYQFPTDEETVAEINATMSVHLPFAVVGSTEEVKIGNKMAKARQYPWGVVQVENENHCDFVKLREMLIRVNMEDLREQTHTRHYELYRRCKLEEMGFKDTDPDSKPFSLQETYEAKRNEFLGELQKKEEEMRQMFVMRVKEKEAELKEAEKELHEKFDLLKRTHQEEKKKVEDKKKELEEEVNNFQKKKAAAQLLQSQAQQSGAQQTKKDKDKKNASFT
UniProt Q9NVC6: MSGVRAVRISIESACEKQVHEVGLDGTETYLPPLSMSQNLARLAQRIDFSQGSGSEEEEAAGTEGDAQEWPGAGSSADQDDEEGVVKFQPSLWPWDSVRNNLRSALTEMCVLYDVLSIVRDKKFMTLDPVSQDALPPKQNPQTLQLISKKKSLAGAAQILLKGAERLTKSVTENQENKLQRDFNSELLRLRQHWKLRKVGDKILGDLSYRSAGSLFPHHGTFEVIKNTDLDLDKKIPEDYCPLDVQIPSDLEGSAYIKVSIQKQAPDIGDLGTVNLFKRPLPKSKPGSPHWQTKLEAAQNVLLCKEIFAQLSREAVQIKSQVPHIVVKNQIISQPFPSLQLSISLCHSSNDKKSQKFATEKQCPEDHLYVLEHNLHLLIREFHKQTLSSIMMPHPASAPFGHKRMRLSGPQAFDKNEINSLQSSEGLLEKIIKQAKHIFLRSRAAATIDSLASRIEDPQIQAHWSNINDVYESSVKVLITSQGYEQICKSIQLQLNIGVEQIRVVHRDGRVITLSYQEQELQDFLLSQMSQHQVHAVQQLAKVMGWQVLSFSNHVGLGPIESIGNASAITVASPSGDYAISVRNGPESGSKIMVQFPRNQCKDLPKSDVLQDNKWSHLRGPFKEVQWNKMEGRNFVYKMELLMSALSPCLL
UniProt Q9UHB6: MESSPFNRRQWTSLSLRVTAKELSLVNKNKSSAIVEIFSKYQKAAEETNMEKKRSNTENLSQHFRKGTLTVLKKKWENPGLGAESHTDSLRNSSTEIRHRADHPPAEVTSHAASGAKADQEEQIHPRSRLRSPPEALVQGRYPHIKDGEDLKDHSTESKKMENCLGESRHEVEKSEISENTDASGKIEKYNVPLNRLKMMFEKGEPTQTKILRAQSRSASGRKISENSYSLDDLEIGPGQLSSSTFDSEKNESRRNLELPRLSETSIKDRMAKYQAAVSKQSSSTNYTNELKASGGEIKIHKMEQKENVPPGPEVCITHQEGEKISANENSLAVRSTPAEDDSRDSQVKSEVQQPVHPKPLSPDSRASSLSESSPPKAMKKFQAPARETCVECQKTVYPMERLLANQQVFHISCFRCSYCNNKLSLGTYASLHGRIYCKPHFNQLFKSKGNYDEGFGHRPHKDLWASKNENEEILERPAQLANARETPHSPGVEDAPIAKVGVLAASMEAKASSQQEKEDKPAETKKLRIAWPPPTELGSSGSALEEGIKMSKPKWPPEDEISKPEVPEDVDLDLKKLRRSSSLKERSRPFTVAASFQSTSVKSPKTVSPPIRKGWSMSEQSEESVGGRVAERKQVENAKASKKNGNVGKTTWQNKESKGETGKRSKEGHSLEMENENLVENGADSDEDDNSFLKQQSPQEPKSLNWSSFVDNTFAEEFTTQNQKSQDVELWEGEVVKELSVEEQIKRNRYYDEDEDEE
UniProt Q9UER7, whole entry, looked up: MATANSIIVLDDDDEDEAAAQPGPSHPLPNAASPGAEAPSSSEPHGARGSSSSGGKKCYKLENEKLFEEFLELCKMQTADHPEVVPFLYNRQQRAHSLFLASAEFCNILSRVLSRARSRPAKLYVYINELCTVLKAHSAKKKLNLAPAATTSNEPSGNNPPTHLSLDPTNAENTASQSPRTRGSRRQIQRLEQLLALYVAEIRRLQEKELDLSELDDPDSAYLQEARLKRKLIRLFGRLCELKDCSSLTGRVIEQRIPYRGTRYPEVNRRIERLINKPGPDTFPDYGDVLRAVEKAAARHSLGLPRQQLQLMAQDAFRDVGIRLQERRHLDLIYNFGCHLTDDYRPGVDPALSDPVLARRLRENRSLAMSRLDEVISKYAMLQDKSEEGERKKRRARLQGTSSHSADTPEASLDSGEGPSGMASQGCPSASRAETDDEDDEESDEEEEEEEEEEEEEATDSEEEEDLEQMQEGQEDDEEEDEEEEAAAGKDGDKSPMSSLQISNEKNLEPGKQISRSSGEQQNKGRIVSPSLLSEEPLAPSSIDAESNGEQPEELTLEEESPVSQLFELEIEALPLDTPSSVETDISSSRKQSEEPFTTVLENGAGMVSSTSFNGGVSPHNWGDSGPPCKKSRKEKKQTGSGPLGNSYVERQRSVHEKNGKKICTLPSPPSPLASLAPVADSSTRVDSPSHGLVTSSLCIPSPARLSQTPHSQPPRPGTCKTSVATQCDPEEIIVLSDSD
UniProt Q9P2I0: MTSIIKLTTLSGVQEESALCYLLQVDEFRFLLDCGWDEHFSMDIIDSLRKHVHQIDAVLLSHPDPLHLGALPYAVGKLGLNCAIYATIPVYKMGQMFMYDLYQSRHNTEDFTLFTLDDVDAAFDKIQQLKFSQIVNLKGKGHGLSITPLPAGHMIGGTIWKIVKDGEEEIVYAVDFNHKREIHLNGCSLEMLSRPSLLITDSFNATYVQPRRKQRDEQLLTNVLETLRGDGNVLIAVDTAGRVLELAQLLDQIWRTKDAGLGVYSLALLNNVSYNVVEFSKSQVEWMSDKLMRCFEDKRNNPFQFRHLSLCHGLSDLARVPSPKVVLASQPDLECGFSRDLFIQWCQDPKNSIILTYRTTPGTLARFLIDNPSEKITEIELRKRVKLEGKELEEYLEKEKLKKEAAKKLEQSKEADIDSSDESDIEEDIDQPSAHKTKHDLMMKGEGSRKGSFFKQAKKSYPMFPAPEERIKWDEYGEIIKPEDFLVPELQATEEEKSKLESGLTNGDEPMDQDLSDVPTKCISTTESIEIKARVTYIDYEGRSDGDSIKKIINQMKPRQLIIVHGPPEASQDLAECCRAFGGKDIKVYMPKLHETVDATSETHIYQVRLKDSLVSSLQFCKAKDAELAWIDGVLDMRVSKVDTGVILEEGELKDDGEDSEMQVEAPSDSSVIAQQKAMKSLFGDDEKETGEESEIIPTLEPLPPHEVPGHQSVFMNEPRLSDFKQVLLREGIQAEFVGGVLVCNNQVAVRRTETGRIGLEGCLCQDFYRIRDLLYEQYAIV

Compound: COC(=O)/C=C/c1ccccc1 [methyl cinnamate]
Experiment: log2 ratio of iodoacetamide-alkyne labeling of the cysteine site, DMSO over compound (competition); higher = stronger covalent engagement of the cysteine by the compound, active = 1 or more
Conditions: 500 µM; treatment time 1 h; system: HEK293T cell lysate
Procedure, shortened: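 HEK293T lysate (2 mg/mL) was incubated with electrophile (500 µM) or vehicle for 1 h at ambient temperature and then with iodoacetamide alkyne for 1 h. Labelled proteins were clicked to sCIP-TMT reagents, pooled, digested, enriched on streptavidin and measured by Orbitrap Eclipse LC-MS/MS with FAIMS, with FragPipe quantification. The per-cysteine log2 competition ratio is mean control-channel reporter intensity over mean compound-channel reporter intensity. Across three replicates with duplicate channels, cysteines quantified in only one replicate were excluded.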

log2 ratio of iodoacetamide-alkyne labeling, inactive:
LARS C554 (UniProt Q9P2J5) 0.307, SRP68 C247 (UniProt Q9UHB9) -0.129, NDRG3 C290 (UniProt Q9UGV2) -0.428, RIC8B C373 (UniProt Q9NVN3) -0.000753, ATAD3A C618 (UniProt Q9NVI7) 0.411, PNPO C156 (UniProt Q9NVS9) 0.198, BCLAF1 C688 (UniProt Q9NYF8) 0.279, FAM120A C531 (UniProt Q9NZB2) 0.233, CDKN2AIP C178 (UniProt Q9NXV6) 0.34, CTSZ C92 (UniProt Q9UBR2) -0.297, FASTKD2 C163 (UniProt Q9NYY8) 0.02, SLTM C568 (UniProt Q9NWH9) 0.0176, UniProt Q9UBC1_C304 0.222, IFT172 C1686 (UniProt Q9UG01) -0.195, RNF181 C10 (UniProt Q9P0P0) 0.144, KCTD5 C6 (UniProt Q9NXV2) 0.12, FANCI C594 (UniProt Q9NVI1) -0.21, UniProt Q9P032_C87 0.338, EPS15L1 C470 (UniProt Q9UBC2) 0.1, CXXC1 C531 (UniProt Q9P0U4) 0.09, DIP2B C333 (UniProt Q9P265) 0.0252, RCC2 C42 (UniProt Q9P258) 0.298, UniProt Q9NUQ3_C56 0.232, SIRT5 C303 (UniProt Q9NXA8) 0.0796, SEC63 C366 (UniProt Q9UGP8) 0.0859, MRPS18A C186 (UniProt Q9NVS2) -0.0367, UniProt Q9P289_C352 0.0625, INTS10 C7 (UniProt Q9NVR2) 0.367, UniProt Q9NVH0_C109 0.36, UniProt Q9NVA2_C41 -0.193, MED17 C241 (UniProt Q9NVC6) 0.0537, LIMA1 C316 (UniProt Q9UHB6) 0.178, AASS C534 (UniProt Q9UDR5) 0.00927, ALKBH4 C194 (UniProt Q9NXW9) -0.0409, SMPD4 C614 (UniProt Q9NXE4) -0.29, DAXX C338 (UniProt Q9UER7) 0.154, CPSF2 C763 (UniProt Q9P2I0) 0.167
